Results published in paper doi:10.1101/2023.07.20.549975.
These are yes or no findings as the source states them, for the method shown. For part of these data: In cells and extracts the contact can be indirect. Sequences can lack the tags named with a protein.

Key:
[1] = biological target: T1, CPK5, cLuc fusion for the split-luciferase assay (Arabidopsis thaliana) (UniProt Q38871); experiment: split reporter
T1 sequence: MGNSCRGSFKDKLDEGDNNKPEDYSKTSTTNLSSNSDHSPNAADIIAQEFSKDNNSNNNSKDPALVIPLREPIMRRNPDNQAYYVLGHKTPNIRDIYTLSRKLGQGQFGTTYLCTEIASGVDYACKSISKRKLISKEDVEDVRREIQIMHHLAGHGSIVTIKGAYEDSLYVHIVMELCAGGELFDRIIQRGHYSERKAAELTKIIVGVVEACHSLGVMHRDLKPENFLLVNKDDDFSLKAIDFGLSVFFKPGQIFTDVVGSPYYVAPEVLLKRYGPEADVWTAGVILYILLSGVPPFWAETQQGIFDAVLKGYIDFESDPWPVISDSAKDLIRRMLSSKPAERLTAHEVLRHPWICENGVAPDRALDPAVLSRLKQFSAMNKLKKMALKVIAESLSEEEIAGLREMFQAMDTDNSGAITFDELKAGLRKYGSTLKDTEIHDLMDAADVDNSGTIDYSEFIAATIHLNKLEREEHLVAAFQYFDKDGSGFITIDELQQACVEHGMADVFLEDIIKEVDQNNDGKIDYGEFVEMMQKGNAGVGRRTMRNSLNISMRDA

[2] = biological target: T2, calcium-dependent protein kinase 5 (CPK5), full-length, yeast two-hybrid fusion (Arabidopsis thaliana) (UniProt Q38871); experiment: two-hybrid
T2 sequence: T1 sequence

binding [2]	Substance	binding [1]
	PP2C6-6 (clade E PP2C), nLuc fusion for the split-luciferase assay (Arabidopsis thaliana)	no binding
no binding	HAB1, yeast two-hybrid fusion (Arabidopsis thaliana)	
	AP2C1 (clade B PP2C), nLuc fusion for the split-luciferase assay (Arabidopsis thaliana)	no binding
